Laboratory results reported in PubChem BioAssay (NCATS).
The shares of active, inactive and inconclusive entries below differ from those in the screen. Calls of active or inactive are those of the source. Calls come from the whole dose curve; as a rule, active = well fitted curve in either direction with a large enough effect (not every such curve was filed as active); inconclusive = small, poorly fitted or top-dose-only effect, or another doubt; inactive = flat fitted curve, though single readings scatter.

Assay: Stat Signaling Pathway (AID 446);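 note: ME-180 cervical cancer cells given 40 pM IL-6 alongside compound; SIE-controlled beta-lactamase reporter measured as 460/530 nm FRET emission ratio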
Conditions: ME-180 (cervical carcinoma) SIE beta-lactamase reporter, IL-6 stimulated, 5 h; at 7.69 µM (top of the series) unless noted
Method in brief: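 Emission at 460 and 530 nm (excitation 405 nm) reports SIE-controlled beta-lactamase in ME-180 cells. Cells received compound with 40 pM IL-6 for 5 hrs at 37 C; data scaled between 300 pM IL-6 and 125 nM JAK-inhibitor controls.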
% is set by controls: 0 for no effect and ±100 for the full control effect.

Row | SMILES | activity, negative = inhibition
1 | COc1ccc(-c2nc3cnc(N(C)C)nc3n(CCC#N)c2=O)cc1 | inconclusive: 4.97% [activator]
2 | COc1ccc(-n2c(=O)cnc3cnc(Nc4ccccc4)nc32)cc1 | inactive: -1.48%
3 | O=C(c1cnccn1)N1CCC2(CCN(Cc3nccs3)CC2)CC1 | inactive: 3.3%
4 | CC(C)(Oc1ccc([C@@H]2CC2(Cl)Cl)cc1)C(=O)O | inconclusive: 38.5% [activator] [at 38 µM]
5 | O=c1cc(O)cc(/C=C\c2ccc(O)c(O)c2)o1 | inconclusive: 3.75% [inhibitor] [at 38 µM]
6 | CN(C)c1ncc2nc(-c3cccs3)c(=O)n(CCc3ccccc3)c2n1 | inconclusive: 37.4% [activator]
7 | O=c1c(-c2ccc(F)c(F)c2)nc2cncnc2n1C1CC1 | inactive: -6.38%
8 | N=C(N)SCCN1CCCCC1 | inactive: -0.606%
9 | O=C(c1ccco1)N1CCC[C@@]2(CCN(Cc3nccs3)C2)C1 | inactive: -3.91%
10 | O=C(O)c1cccc(CN2CCCCC2)c1 | inactive: 3.88%
11 | CS(=O)(=O)N1CCC2(CC1)CN(c1cccc(-c3ccccc3)c1)C2 | inactive: -14.9%
12 | COc1cccc(Cn2c(=O)cnc3cnc(OC)nc32)c1 | inconclusive: -4.62% [inhibitor]
13 | Nc1c2c(nc3ccccc13)CCC[C@H]2O | inconclusive: 235% [activator] [at 38 µM]
14 | NCCNc1ncnc2ccc(Cl)cc12 | inactive: -14.9%
15 | Cc1ccc(Nc2nnc(-c3ccc4c(c3)OCO4)o2)c(C)c1 | inactive: -2.78%
16 | O=C(/C=C/c1ccccc1)c1ccccc1 | inconclusive: -64.4% [inhibitor] [at 17.2 µM]
17 | CO/N=C(\C(=O)N[C@@H]1C(=O)N2C(C(=O)O)=C(CSc3nc(=O)c(O)nn3C)CS[C@@H]12)c1csc(N)n1 | inconclusive: 36.5% [activator] [at 38 µM]
18 | OC[C@@H]1O[C@@H](n2cnc3c(NC4CCCCC4)ncnc32)[C@@H](O)[C@H]1O | inconclusive: 53.9% [activator] [at 38 µM]
19 | Cc1ccccc1CNc1ncnc2c1ncn2[C@@H]1O[C@@H](CO)[C@H](O)[C@@H]1O | inconclusive: 12.2% [activator] [at 38 µM]
20 | S=C(CSc1ccccc1)Nc1cccc2ccccc12 | inconclusive: -44.2% [inhibitor]
21 | C[C@@H](C[N+](C)(C)C)OC(N)=O | inconclusive: -34.5% [inhibitor] [at 38 µM]
22 | Cn1cccc1C(=O)N1CCC2(CCCN(c3ccccc3)C2)CC1 | inactive: -6.3%
23 | COc1ncc2nc(-c3ccc(F)cc3)c(=O)n(-c3ccccc3)c2n1 | inactive: -2.33%
24 | O=[N+]([O-])c1ccc2c(N=Nc3ccc4ccccc4c3O)c(O)cc(S(=O)(=O)O)c2c1 | inconclusive: -43.5% [inhibitor]
25 | O=c1c(-c2ccc(F)c(F)c2)nc2cncnc2n1-c1ccccc1 | inconclusive: -4.21% [inhibitor]
26 | Cc1cc(SCC(=O)c2ccc(Br)cc2)cc(C)[o+]1 | inconclusive: -60% [inhibitor]

Among those listed so far, these have a Cl atom.
Row | SMILES | activity, negative = inhibition
4 | CC(C)(Oc1ccc([C@@H]2CC2(Cl)Cl)cc1)C(=O)O | inconclusive: 38.5% [activator] [at 38 µM]
14 | NCCNc1ncnc2ccc(Cl)cc12 | inactive: -14.9%
